According to the supplement of paper PMC7824004:
The other results are listed elsewhere or left out. The data scatter; read single values as rough.

Tested on: Candida albicans SN425
Assay: biofilm OD600 B-score; higher = more biofilm (less inhibition)
Details: 10 µM; assay detail: High-throughput adherence inhibition optical density biofilm assay with C. albicans SN425 in RPMI-1640/MOPS pH 7.0, 384-well plates. …
Protocol: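 High-throughput adherence inhibition optical density biofilm assay with C. albicans SN425 in RPMI-1640/MOPS pH 7.0, 384-well plates. Compound (10 µM) was present only during the 90 min adherence step, then washed out, and the biofilm grew 24 h without compound. Biofilm was read as OD600 after removing the media. Scores are the difference from the mean in standard deviations and the plate B-score.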

SMILES	biofilm OD600 B-score
COc1ccc(S(=O)(=O)N2CCC(C(=O)N3CCCC3)CC2)cc1	-1
COCC(=O)Nc1ccccc1C(C)C	-0.0188
NC(=O)Cn1cnc(-c2ccc(Cl)cc2)c1	0.931
Cc1ccnc(NS(=O)(=O)c2ccc(C(C)(C)C)cc2)c1	0.216
CC(=O)Nc1ccccc1-c1ccccc1NC(C)=O	-1.46
COc1ccc(CN2CCc3ccccc3C2)c(OC)c1OC	-1.97
CCC(=O)Nc1cccc(NC(=O)c2cccnc2)c1	0.851
Cc1ccc(S(=O)(=O)NCc2cccnc2)cc1	1.35
CN1CCCN(CC2CC=CCC2)CC1 (stereo not given)	0.44
Clc1ccc(OCCn2ccnc2)c(Br)c1	1.27
Clc1ccccc1OCCCCN1CCOCC1	0.0139
O=C(O)CCCNC(=O)c1ccncc1	-0.0153
O=C(NC1CCCCC1)N1CCCc2ccccc21	0.381
COc1ccc(C2(CNC(C)=O)CCOCC2)cc1OC	-3.03
COc1ccc(Cl)cc1S(=O)(=O)Nc1ccccc1C(=O)O	-1.17
NC(=O)C1CCN(CC(=O)Nc2ccc(Br)cc2)CC1	1.14
Cc1cccc(OCCCn2ccnc2)c1C	0.0794
COCC(=O)Nc1ccc(S(=O)(=O)N2CCOCC2)cc1	1.65
O=C(Nc1ccccc1)Nc1nnc(-c2ccccc2)s1	0.28
COc1ccc(NC(=O)CNC(=O)C2CCCCC2)cc1	3.39

SMILES	biofilm OD600 B-score
CSc1ccc(S(=O)(=O)NC2CCCCC2)cc1	-2.78
OC1CCN(Cc2ccc(Cl)c(Cl)c2)CC1	0.757
COc1ccc(Cl)cc1N(CC(=O)O)S(C)(=O)=O	-4.15
Cc1nc(SCC(N)=O)c(C#N)c(C)c1C	-3.5
COc1ccc(NC(=O)NC(C)c2ccccc2)cc1 (stereo not given)	0.719
CCCCOc1ccc(CSCCN)cc1	-1.19
CCCN(CCO)Cc1ccc(F)c(F)c1	-0.72
COc1ccc(C(=O)NCCCN2CCOCC2)cc1	0.854
COCCNC(=O)Cc1ccccc1OC	0.049
CCn1c(=O)cc(O)c2ccccc21	1.75
CSc1nc(C)cc(OCCNC(=O)Nc2ccccc2)n1	-1.08
COc1ccc(NC(=O)Cc2cccs2)cc1OC	1.71
CC(C)(C)NC(=O)CSc1nnc(-c2ccccc2)o1	0.224
Cc1cc(N2CCC(C)CC2)nc(-n2nc(C)cc2C)n1	-0.148
NC(=O)CN1NC2C3CCCCC3C3CCCC(C1=O)C32 (stereo not given)	-2.04
CC(=O)c1cccc(NC(=O)CN2C(=O)C3C4CCC(C4)C3C2=O)c1 (stereo not given)	-2.64
O=C(Nc1cccc(Cl)c1)NC1CC1	2.9
NC(=O)c1ccccc1NC(=O)CCSc1ccccc1	-0.521
CCCN1CCC(NCCc2ccccc2OC)CC1	1
Cc1ccc(Nc2cc(-n3nc(C)cc3C)ncn2)c(C)c1	2

Another view of part of the listing above:
Cc1cc(N2CCC(C)CC2)nc(-n2nc(C)cc2C)n1
  biofilm OD600 B-score: -0.148
NC(=O)CN1NC2C3CCCCC3C3CCCC(C1=O)C32 (stereo not given)
  biofilm OD600 B-score: -2.04
